PubChem BioAssay AID743454 – Peter MacCallum Cancer Centre – 2014
Here is a random part of about 18,000 reagents tested. 450 of all reagents (2.5%) were called active. 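Single biological run; no consistent viability z cut-off exists, so the class columns, not z-scores, define the calls.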 A number with no mark means an inactive call. No sequences are given here.

- Purpose: 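Genes whose loss kills vorinostat-resistant colon cancer cells under vorinostat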 (primary screen)
- Cells: human HCT116-VR colon cancer cells, selected for vorinostat resistance
- Knock-down reagent: siRNA pool against human genes, 40 nM siRNA pool
- Timing: vorinostat for 24 h, read-out about 72 h after transfection
- Treatment: vorinostat at 2.5 µM final
- Measurement: 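Two measures, CellTiter-Fluor viability and luminescent caspase 3/7 activity, each as fold change against same-plate mock wells, mean of duplicates, then screen-wide robust z-score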
- Scale: viability robust z-score: higher = more viable cells than screen typical; caspase robust z-score: higher = more caspase 3/7 activity than screen typical
- Hit rule: 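Hits are knock-downs in viability class RV1/RV2 or caspase class CA1/CA2, excluding ones that killed cells in the no-drug cell-count arm; hits then retested with single siRNAs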

target gene | viability hit class | caspase hit class | viability robust z-score | caspase robust z-score
USP31 | no change | no change | -0.28 | 0.93
OR2G3 | no change | no change | 0.96 | 0.82
CDK10 | no change (active) | CA2 (caspase activation) | -1.02 | 6.36
CBFA2T2 | no change | no change | -0.22 | -0.48
OR10V1 | no change (active) | CA2 (caspase activation) | -0.73 | 7.28
PDYN | no change | no change | 0.36 | -0.37
TAGAP | no change | no change | -2.28 | 2.53
MORN4 | no change | no change | 0.68 | 1.77
CDH5 | no change | no change | 0.03 | 1.2
ACSM3 | no change | no change | -0.04 | -0.65
ITGAM | no change | no change | 0.14 | -0.63
OR5K2 | no change | no change | 0.4 | 0.19
SACK1D | no change | no change | 0.1 | 0.42
LDHA | no change | no change | -0.11 | -1.29
OR4F16 | no change | no change | -0.16 | -1.06
C9orf85 | no change | no change | 0.39 | -0.46
COX6C | no change | no change | -0.96 | 1.93
UBR2 | no change | no change | -1.25 | 0.4
TEAD3 | no change | no change | -0.44 | -0.36
TUFM | no change | no change | -0.02 | -0.4
NAP1L4 | no change | no change | -0.64 | 0.44
PURG | no change | no change | 0.92 | -0.84
SHMT1 | no change | no change | 0.3 | 0.9
MATK | no change | no change | 0.97 | 3.72
HMX2 | no change | no change | 1.57 | -0.49
IDNK | no change | no change | -0.28 | -0.29
CD3G | no change | no change | 0.26 | -0.8
CRIP1 | no change | no change | 0.64 | -0.24
AP1S2 | no change | no change | -0.54 | -0.32
MED4 | no change | no change | -0.77 | -0.08
ACYP2 | no change | no change | 1.31 | 0.1
TRAPPC13 | no change | no change | -0.18 | -0.18
RNASE7 | no change | no change | -1.34 | -0.28
TRAF7 | no change | no change | 0.24 | -0.92
LINC03042 | no change | no change | 1.01 | -0.18
UBD | no change | no change | -1.09 | 1.98
PHF2 | no change | no change | -0.16 | -0.62
ZNF134 | no change | no change | 0.34 | 1.27
NCR1 | no change | no change | -0.37 | 0.88
TCEAL2 | no change | no change | 1.18 | -0.11
ARMC6 | no change | no change | 1.07 | 2.51
FBXO11 | no change | no change | 0.24 | 0.48
SPESP1 | no change | no change | 1.1 | 0.04
LOC402715 | no change | no change | 0.06 | 0.05
OR2J2 | no change | no change | -0.23 | 1.02
TRIM51 | no change | no change | -0.24 | 0.16
LRRC74A | no change | no change | 0.86 | -0.97
PLA2G4E | no change | no change | 0.62 | -0.59
TMPRSS15 | no change | no change | -0.84 | -0.45
LAT2 | no change | no change | -0.22 | -0.07
CEP112 | no change | no change | 0.75 | -0.3
HOXD12 | no change | no change | -0.78 | 0.24
INTS7 | no change | no change | -0.8 | 0.37
BLID | no change | no change | -0.93 | 0.44
MFRP | no change | no change | 0.34 | -0.09
HYOU1 | no change | no change | 0.98 | 0.49
PCSK5 | no change | no change | -0.52 | 1.34
GYG1 | no change | no change | 0.32 | -0.24
ME1 | no change | no change | 0.83 | -0.16
IL20 | no change | no change | -1.36 | 0.1
DHX15 | no change | no change | -0.74 | 0.83
FAM151B | no change | no change | -0.6 | -1
ROCK2 | no change | no change | -0.48 | 4.9
PRICKLE2 | no change (active) | CA1 (caspase activation) | -0.98 | 11.4
SP2 | no change | no change | 0.12 | -0.71
RCBTB1 | no change | no change | 0.92 | -0.72
SLC7A7 | no change | no change | 0 | -0.25
OPA3 | no change | no change | 0.65 | 0.04
RAD52 | no change | no change | 0.66 | -0.52
DPM3 | no change | no change | -1.21 | 1.34
HMGCL | no change | no change | -1.4 | -0.54
BAX | no change | no change | -0.16 | -0.57
SNX24 | no change | no change | 0.99 | 0.17

Hits, of those listed so far:
target gene | viability hit class | caspase hit class | viability robust z-score | caspase robust z-score
CDK10 | no change (active) | CA2 (caspase activation) | -1.02 | 6.36
OR10V1 | no change (active) | CA2 (caspase activation) | -0.73 | 7.28
PRICKLE2 | no change (active) | CA1 (caspase activation) | -0.98 | 11.4
